Reference: article doi:10.1101/797647
No constants are given. Whether binding was seen depends on the method and setting. For some of these results: In cells and extracts the contact can be indirect. Some results given as binding are weak or reduced against the parent protein; the word gives no strength. Sequences can lack the tags named with a protein.

By UniProt entry, the sequences of proteins in these tests, tags left out. Where a name states a change or a piece, a line headed by the entry shows the natural chain unless it says otherwise.
UniProt Q06609, whole entry: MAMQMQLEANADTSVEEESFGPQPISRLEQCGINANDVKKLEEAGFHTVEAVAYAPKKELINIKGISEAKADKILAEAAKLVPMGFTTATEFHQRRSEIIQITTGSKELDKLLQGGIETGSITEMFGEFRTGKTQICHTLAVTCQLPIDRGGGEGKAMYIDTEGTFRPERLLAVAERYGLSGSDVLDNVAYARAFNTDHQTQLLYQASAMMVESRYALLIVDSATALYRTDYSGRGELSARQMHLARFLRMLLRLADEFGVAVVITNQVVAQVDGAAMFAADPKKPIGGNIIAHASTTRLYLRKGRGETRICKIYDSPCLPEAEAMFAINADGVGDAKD

T1: Myc-Δ700N (CTC1 lacking the N-terminal 700 residues) (human) (UniProt Q2NKJ3)
T1 sequence: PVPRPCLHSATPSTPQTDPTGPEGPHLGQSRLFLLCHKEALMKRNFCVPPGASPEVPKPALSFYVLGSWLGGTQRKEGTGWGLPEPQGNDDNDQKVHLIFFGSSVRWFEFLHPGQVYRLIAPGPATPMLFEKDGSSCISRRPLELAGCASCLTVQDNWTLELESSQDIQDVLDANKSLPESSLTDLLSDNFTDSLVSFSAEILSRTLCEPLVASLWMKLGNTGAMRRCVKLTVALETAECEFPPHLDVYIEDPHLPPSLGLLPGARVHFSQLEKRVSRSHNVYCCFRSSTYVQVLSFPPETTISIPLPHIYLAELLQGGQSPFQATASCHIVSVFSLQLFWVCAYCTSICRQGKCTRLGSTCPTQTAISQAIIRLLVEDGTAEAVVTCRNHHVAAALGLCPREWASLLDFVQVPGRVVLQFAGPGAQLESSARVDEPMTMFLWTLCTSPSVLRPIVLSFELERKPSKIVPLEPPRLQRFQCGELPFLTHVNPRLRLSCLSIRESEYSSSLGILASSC

T2: Myc-CTC1 (full-length WT-CTC1) (human) (UniProt Q2NKJ3)
T2 sequence: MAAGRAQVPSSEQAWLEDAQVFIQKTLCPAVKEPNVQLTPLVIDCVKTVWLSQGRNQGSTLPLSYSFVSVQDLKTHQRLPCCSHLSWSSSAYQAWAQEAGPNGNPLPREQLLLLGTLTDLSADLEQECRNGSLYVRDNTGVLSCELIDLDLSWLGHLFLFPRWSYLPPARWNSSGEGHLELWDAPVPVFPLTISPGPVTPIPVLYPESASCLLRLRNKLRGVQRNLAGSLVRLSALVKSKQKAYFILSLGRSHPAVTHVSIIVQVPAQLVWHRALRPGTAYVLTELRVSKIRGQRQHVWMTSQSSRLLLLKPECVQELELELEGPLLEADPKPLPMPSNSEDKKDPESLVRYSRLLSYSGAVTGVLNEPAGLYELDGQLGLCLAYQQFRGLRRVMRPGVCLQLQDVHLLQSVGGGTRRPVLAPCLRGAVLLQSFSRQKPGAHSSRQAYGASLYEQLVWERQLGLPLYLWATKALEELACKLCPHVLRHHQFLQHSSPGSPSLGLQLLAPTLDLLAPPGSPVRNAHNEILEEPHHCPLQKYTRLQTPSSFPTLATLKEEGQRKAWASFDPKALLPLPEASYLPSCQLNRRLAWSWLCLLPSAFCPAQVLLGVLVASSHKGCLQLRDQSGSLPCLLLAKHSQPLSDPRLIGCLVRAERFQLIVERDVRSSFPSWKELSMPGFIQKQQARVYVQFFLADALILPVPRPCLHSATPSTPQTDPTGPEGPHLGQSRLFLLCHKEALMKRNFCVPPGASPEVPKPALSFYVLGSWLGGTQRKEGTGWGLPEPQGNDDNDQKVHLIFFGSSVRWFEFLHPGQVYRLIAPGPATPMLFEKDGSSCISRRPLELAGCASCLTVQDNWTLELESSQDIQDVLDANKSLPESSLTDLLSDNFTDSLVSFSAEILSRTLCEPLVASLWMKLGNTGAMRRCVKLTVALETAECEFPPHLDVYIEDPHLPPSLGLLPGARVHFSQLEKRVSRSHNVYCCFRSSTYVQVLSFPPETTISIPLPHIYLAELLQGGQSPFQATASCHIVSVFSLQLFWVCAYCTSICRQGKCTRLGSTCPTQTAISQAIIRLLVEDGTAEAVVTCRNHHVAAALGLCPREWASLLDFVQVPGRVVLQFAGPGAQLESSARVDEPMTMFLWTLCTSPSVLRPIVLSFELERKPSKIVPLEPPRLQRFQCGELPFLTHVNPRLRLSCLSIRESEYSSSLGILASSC

T3: Flag-CTC1 (wild type, of the purified human CST complex) (human) (UniProt Q2NKJ3)
T3 sequence: T2 sequence

T4: Flag-CTC1Δ700N (of the purified Δ700N-ST complex) (human) (UniProt Q2NKJ3)
T4 sequence: T1 sequence

B1: His6-STN1 (protein, UniProt Q9H668 1-368)
chain: MQPGSSRCEEETPSLLWGLDPVFLAFAKLYIRDILDMKESRQVPGVFLYNGHPIKQVDVLGTVIGVRERDAFYSYGVDDSTGVINCICWKKLNTESVSAAPSAARELSLTSQLKKLQETIEQKTKIEIGDTIRVRGSIRTYREEREIHATTYYKVDDPVWNIQIARMLELPTIYRKVYDQPFHSSALEKEEALSNPGALDLPSLTSLLSEKAKEFLMENRVQSFYQQELEMVESLLSLANQPVIHSASSDQVNFKKDTTSKAIHSIFKNAIQLLQEKGLVFQKDDGFDNLYYVTREDKDLHRKIHRIIQQDCQKPNHMEKGCHFLHILACARLSIRPGLSEAVLQQVLELLEDQSDIVSTMEHYYTAF
B2: TEN1-(His)6 (of the purified human CST complex) (protein, UniProt Q86WV5 1-123)
chain: MMLPKPGTYYLPWEVSAGQVPDGSTLRTFGRLCLYDMIQSRVTLMAQHGSDQHQVLVCTKLVEPFHAQVGSLYIVLGELQHQQDRGSVVKARVLTCVEGMNLPLLEQAIREQRLYKQERGGSQ
B3: HA-TEN1 (protein, UniProt Q86WV5 1-123)
chain: B2 chain
B4: Myc-Δ700N (CTC1 lacking the N-terminal 700 residues) (domain or fragment, UniProt Q2NKJ3 701-1217)
chain: T1 sequence
B5: Myc-CTC1 (full-length WT-CTC1) (protein, UniProt Q2NKJ3 1-1217)
chain: T2 sequence
B6: STN1 (of the purified human CST complex) (protein, UniProt Q9H668 1-368)
chain: B1 chain

Columns and labels:
[1] = biological target: T1, Myc-Δ700N (CTC1 lacking the N-terminal 700 residues) (human); assay: co-IP
[2] = biological target: T2, Myc-CTC1 (full-length WT-CTC1) (human); assay: co-IP
[3] = biological target: T3, Flag-CTC1 (wild type, of the purified human CST complex) (human); assay: co-purification
[4] = biological target: T4, Flag-CTC1Δ700N (of the purified Δ700N-ST complex) (human); assay: co-purification
[5] = biological target: Flag-RAD51 (UniProt Q06609); assay: co-IP

Binder | binding [1] | binding [2] | binding [3] | binding [4] | binding [5]
B1 | binds | binds |  |  | 
B2 |  |  | binds | binds | 
B3 | binds | binds |  |  | 
B4 |  |  |  |  | binds
B5 |  |  |  |  | binds
B6 |  |  | binds | binds | 
